Results taken from patent EP0457381B1, “Delta 2-cephem sulphones” (PHARMACIA S.p.A., priority 1990, dated 1991).
At least one structure is not confirmed: it was looked up by name or label, or the drawing left a doubt.

Target: T1, human leukocyte elastase (HLE) (Homo sapiens, UniProt P08246)
T1 construct: purchased Calbiochem
T1 sequence (P08246 30-267): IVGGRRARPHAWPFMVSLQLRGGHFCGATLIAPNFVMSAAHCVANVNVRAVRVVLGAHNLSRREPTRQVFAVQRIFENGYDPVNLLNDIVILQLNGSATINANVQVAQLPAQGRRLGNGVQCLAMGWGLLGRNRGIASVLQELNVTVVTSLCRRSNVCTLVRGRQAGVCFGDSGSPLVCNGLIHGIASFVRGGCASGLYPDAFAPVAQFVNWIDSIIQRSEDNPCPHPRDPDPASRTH
Experiment: Kinetic parameters of HLE inhibition, fluorogenic substrate N-methoxysuccinyl-alanyl-alanyl-prolyl-valyl-7-amido-4-methylcoumarin
Format: biochemical
Details: HLE (Calbiochem), 37°C, phosphate buffer pH 7.4, I= 0.15, 1% DMSO and 1% MeCN; rate of formation of HLE-inhibitor complex
Description: The inhibitory activity on human leukocyte elastase (HLE) of Δ-cephem sulphones of the invention, designated as Compound 4 and Compound 5 in Table 1 above, and of the Δ³-cephem sulphone Merck S.&D. L-659,286, which, to our best knowledge, is the most advanced β-lactam product under study as an HLE-inhibitor (Ann. Rev. Resp. Dis. 1988, 137:204; Journal of Cellular Biochemistry 1989, 39:47), was compared as described below.
The reference compound 7α-methoxy-3-(2-methyl-5-oxo-6-hydroxy-2,5-dihydro-1,2,4-triazin-3-yl)thiomethyl-3-cephem-4-pyrrolidine-carboxamide-1,1-dioxide (Merck's code-name; L-659,286) was synthesized in our laboratories from 7-amino-3-desacetoxy-cephalosporanic acid. Its structural identity and purity (≥95%) was confirmed by spectral and analytical data.
The kinetic parameters of HLE (Calbiochem) inhibition were determined at 37°C in phosphate buffer (pH 7.4, I= 0.15) with 1% DMSO and 1% MeCN as solubilizing vehicles, monitoring fluorometrically (λex= 383 nm; λem = 455 nm) the release of 7-amino-4-methylcoumarin from the fluorogenic substrate N-methoxysuccinyl-alanyl-alanyl-prolyl-valyl-7-amido-4-methylcoumarin. […] At steady state, inhibition is fully determined by the steady-state inhibition constant Ki* (steady state): Ki * = Ki (k6)/(k5 + k6) [formula]

COC(=O)C1(C=CC(=O)OC(C)(C)C)C(C)=C(/C=C/C(=O)OC(C)(C)C)S(=O)(=O)[C@@H]2[C@@H](Cl)C(=O)N21 (stereo partly drawn) [Compound 5, Methyl-7α-Chloro-2,4-bis[2-tert-butoxycarbonylethenyl]-3-methyl-2-cephem-4-carboxylate-1,1-dioxide]
k₅/Ki: k₅/Ki = 70,000 M⁻¹s⁻¹
